Measured values as given in patent US20260132217A1 (UNIVERSITE D AIX MARSEILLE, published 2026).
Results are given in words; binding and its absence hold for the method and conditions named. For some of these results: In cells and extracts the contact can be indirect. Some results given as binding are weak or reduced against the parent protein; the word gives no strength.

Chains of the proteins cited; added tags and fusions are not shown. Lines headed by an entry give the natural chain unless they say otherwise; changes in a name come on top.
UniProt P06756: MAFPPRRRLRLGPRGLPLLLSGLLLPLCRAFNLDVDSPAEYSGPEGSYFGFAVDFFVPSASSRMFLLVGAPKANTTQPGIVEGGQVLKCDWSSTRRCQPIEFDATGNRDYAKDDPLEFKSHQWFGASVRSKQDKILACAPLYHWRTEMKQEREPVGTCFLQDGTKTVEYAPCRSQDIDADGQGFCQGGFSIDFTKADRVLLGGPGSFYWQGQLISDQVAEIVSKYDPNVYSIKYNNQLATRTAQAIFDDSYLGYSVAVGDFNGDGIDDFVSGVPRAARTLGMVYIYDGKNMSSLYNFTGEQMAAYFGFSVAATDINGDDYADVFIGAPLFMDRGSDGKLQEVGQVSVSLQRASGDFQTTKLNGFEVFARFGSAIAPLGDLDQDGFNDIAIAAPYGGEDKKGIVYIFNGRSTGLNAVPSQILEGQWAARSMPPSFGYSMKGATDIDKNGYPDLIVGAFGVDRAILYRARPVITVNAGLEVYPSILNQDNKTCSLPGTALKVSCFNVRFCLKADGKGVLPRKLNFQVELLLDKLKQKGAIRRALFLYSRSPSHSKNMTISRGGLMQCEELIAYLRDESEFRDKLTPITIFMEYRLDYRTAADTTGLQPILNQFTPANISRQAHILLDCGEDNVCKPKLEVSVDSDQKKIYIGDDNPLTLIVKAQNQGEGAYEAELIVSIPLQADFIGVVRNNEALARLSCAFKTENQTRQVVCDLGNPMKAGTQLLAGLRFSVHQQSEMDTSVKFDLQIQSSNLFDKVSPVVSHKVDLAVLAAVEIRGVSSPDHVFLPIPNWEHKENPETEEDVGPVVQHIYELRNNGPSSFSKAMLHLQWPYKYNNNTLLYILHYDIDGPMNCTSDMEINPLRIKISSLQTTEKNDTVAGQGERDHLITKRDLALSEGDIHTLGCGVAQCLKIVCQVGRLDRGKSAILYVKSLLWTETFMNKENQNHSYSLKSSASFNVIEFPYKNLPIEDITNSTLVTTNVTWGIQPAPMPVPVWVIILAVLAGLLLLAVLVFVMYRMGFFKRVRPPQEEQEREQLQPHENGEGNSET
UniProt P05106: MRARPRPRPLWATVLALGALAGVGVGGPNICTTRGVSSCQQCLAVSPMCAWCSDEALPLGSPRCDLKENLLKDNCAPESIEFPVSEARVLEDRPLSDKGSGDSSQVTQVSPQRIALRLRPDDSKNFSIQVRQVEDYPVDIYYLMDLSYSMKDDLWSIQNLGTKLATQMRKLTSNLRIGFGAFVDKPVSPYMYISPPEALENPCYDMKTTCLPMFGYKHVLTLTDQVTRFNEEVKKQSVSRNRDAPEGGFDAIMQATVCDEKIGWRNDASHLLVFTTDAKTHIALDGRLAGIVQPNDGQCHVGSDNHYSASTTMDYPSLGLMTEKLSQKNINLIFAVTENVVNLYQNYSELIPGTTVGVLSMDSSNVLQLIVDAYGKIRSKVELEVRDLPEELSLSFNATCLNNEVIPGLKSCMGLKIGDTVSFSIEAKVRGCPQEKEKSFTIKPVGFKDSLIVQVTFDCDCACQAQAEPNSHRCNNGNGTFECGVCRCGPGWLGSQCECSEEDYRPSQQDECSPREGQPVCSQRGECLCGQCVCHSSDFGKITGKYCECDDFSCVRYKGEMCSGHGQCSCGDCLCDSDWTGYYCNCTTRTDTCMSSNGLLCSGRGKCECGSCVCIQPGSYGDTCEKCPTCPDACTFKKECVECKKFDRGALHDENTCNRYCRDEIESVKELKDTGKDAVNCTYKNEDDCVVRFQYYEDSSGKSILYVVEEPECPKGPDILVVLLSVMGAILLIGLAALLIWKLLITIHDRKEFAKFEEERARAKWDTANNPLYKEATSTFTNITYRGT

Tests used:
[1] = biological target: T1, membrane CD146 on cells (U87, U373, HUVEC) (human) (UniProt P43121); test: co-immunoprecipitation with anti-CD146 antibody from HUVEC, western blot
T1 sequence (looked up): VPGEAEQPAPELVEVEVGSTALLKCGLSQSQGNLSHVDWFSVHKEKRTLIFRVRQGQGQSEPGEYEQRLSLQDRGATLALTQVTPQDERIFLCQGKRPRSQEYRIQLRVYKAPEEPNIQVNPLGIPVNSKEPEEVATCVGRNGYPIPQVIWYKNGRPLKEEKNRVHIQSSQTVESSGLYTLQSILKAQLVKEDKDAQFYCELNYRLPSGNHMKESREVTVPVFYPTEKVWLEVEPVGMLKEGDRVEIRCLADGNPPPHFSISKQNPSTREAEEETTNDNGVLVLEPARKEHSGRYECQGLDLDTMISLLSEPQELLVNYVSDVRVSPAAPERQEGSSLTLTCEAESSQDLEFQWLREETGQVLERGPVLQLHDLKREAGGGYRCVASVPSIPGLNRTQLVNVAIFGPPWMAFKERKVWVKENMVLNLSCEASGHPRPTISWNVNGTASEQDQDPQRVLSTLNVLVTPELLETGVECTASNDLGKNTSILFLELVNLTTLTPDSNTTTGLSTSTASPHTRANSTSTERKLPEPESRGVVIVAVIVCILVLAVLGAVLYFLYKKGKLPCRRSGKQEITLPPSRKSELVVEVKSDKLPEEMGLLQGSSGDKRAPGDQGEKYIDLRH

[2] = biological target: T2, integrin αvβ3 on cells (U87, U373, HUVEC; CHO cells transfected with αv and β3 plasmids) (human) (UniProt P06756+P05106); test: as above
[3] = biological target: T2, integrin αvβ3 on cells (U87, U373, HUVEC; CHO cells transfected with αv and β3 plasmids) (human); test: co-immunoprecipitation with anti-CD146 S-Endo1 from U87 cells (reproduced in U373), western blot
[4] = biological target: T2, integrin αvβ3 on cells (U87, U373, HUVEC; CHO cells transfected with αv and β3 plasmids) (human); test: co-immunoprecipitation from CHO cells with anti-αvβ3 antibody
[5] = biological target: T2, integrin αvβ3 on cells (U87, U373, HUVEC; CHO cells transfected with αv and β3 plasmids) (human); test: sCD146-FITC binding to U87 and U373 cells after siRNA knock-down
[6] = biological target: T2, integrin αvβ3 on cells (U87, U373, HUVEC; CHO cells transfected with αv and β3 plasmids) (human); test: sCD146-FITC binding to HUVEC with or without β3 siRNA, flow cytometry
[7] = biological target: T2, integrin αvβ3 on cells (U87, U373, HUVEC; CHO cells transfected with αv and β3 plasmids) (human); test: flow cytometry and immunofluorescence on CHO cells transfected with αvβ3

## integrin αvβ3 on cells (U87, U373, HUVEC; CHO cells transfected with αv and β3 plasmids) (from UniProt P06756 31-1048; P05106 27-788) (receptor)
[1]
  binding: binds

## membrane CD146 on cells (U87, U373, HUVEC) (from UniProt P43121 24-646) (receptor)
[2]
  binding: binds
[3]
  binding: binds

## soluble CD146 (sCD146), recombinant human sCD146 (from UniProt P43121 24-559) (ligand)
[4]
  binding: binds
[5]
  binding: binds
[6]
  binding: binds
[7]
  binding: binds
